Data taken from paper PMC7819943, “Rice protein-binding microarrays: a tool to detect cis-acting elements near promoter regions in rice”.
The other results are listed elsewhere or left out.

Each sequence was assayed against T1, OsSMF1 (Oryza sativa, UniProt Q6ZLB0 1-436) (assay: protein-binding microarray (RPBM); PBS, 2% BSA, 51.3 ng/ul salmon testes DNA, 50 uM zinc acetate, 200 nM TF, 25 C, 1 h; high values mean tight binding). Details: protein: recombinant; tags: N-terminal polyhistidine and DsRed monomer fusion (pET32a); chain copies: 2; label: CyDye5-dUTP incorporated in the synthesized complementary strand; 3' TTTTT single-stranded linker to array surface; dsDNA, one strand shown.
T1 sequence: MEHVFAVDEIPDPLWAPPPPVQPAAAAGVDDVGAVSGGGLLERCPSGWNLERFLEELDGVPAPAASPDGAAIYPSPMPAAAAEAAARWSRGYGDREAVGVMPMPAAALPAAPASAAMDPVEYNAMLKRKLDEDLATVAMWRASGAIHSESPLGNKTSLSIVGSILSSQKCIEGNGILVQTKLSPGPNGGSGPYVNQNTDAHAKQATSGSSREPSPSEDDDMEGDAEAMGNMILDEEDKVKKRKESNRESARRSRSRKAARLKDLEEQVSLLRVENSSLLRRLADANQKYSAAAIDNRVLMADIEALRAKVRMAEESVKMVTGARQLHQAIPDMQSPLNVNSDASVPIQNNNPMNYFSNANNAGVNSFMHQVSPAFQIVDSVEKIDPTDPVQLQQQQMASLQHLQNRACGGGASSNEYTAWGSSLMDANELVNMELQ
Summary of the method: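 Using Ni–NTA, transcription factors fused N-terminally to polyhistidine and DsRed were purified after expression in E. coli BL21-CodonPlus. These were incubated at 200 nM with a blocked, double-stranded custom Agilent array for 1 h at 25 °C in a buffer containing 50 µM zinc acetate, and the array was washed. The binding signal is per-feature fluorescence intensity (arbitrary units) on an Axon 4000B scanner.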

Compared with “AGAGTGAGAGAGAAGTGAGAGAGAGTGTGTGTGAGAGAGACGGAGTCACCTAGTGCAG”, “ATCATGTGAACTTCCCTATGACATGCCACATCAAATATTGCGGAGTCACCTAGTGCAG” is lower in binding signal: 5620 fluorescence intensity (a.u.) for the first, 3310 fluorescence intensity (a.u.) for the second.

Going from “CTAAACACGTCCTATCATGTCACGTAGATAATATGACACGCGGAGTCACCTAGTGCAG” to “GAATATCATCATATGCTGCGTGTCTCCCGTCAGTCCCGTGCGGAGTCACCTAGTGCAG”, the binding signal falls from 5080 fluorescence intensity (a.u.) to 4290 fluorescence intensity (a.u.).

Compared with “GCCGCTGATTCTCGCCCGCCCACGTCGCCAGCGACGTCTGCGGAGTCACCTAGTGCAG”, “GGTCAATTACCGGTTGATCGAGCATCGTTTCCGAAGAGATCGGAGTCACCTAGTGCAG” is lower in binding signal: 5280 fluorescence intensity (a.u.) for the first, 4550 fluorescence intensity (a.u.) for the second.

Compared with “GCCATCGCCATCGCCATCGCCGTCGCGCGACGACGTGTTGCGGAGTCACCTAGTGCAG”, “ACGGCGCCGTGTGCCACGTCGGCTTGCCGCCCTTTGAAAGCGGAGTCACCTAGTGCAG” is higher in binding signal: 4670 fluorescence intensity (a.u.) for the first, 17200 fluorescence intensity (a.u.) for the second.

Compared with “TCCGAACATCCGCGTGTCTGCTTCTGCGCCAGCCCGAGCCCGGAGTCACCTAGTGCAG”, “CCGTATGCTCCGTATGTTCGAGGATCCCTTTCCGACCGCGCGGAGTCACCTAGTGCAG” is lower in binding signal: 44300 fluorescence intensity (a.u.) for the first, 3430 fluorescence intensity (a.u.) for the second.

Going from “CATCAAATCCAACGGCCCCACCTCACGTCACGATCTCACGCGGAGTCACCTAGTGCAG” to “CACCATTATTGCCAATTATCCTTGCTTGCGTGGTAGAGTACGGAGTCACCTAGTGCAG”, the binding signal rises from 3340 fluorescence intensity (a.u.) to 5860 fluorescence intensity (a.u.).

First: CAAAACATGCCGATTATTATTGACTGGATTTAGATAGACACGGAGTCACCTAGTGCAG
Second: TATATAAGTCAAACCACAGCCTCCACGCAATACACGTGAACGGAGTCACCTAGTGCAG
The binding signal of the first is lower: 3840 fluorescence intensity (a.u.) for the first, 4440 fluorescence intensity (a.u.) for the second.

First: AAATTGCTGAGACGCGATTACACCGACTCTGGTCGTCTCACGGAGTCACCTAGTGCAG
Second: GACAGGCCGCCTGTTGCCACCTAACCCGTGATCTGACCGGCGGAGTCACCTAGTGCAG
The binding signal of the first is lower: 3210 fluorescence intensity (a.u.) for the first, 3590 fluorescence intensity (a.u.) for the second.

First: GCTCGCCGCCGACTCCACCTCCCCGTCGCGGCGGCATCGACGGAGTCACCTAGTGCAG
Second: CACAGTAGTTACACCTCATTTACACCCCACTTACATATGTCGGAGTCACCTAGTGCAG
The binding signal of the first is higher: 3930 fluorescence intensity (a.u.) for the first, 3450 fluorescence intensity (a.u.) for the second.

Compared with “CTGCTAAATGGCACGTTTCGTGTGAAAACTTTATATAGAACGGAGTCACCTAGTGCAG”, “CGTCCCTTGGACGTCATCTTCTCCTCACGTGCATTGCCTCCGGAGTCACCTAGTGCAG” is higher in binding signal: 3410 fluorescence intensity (a.u.) for the first, 4360 fluorescence intensity (a.u.) for the second.

Going from “CTTGCCCAAACGAAGGAGAATTTTGAGAGAGAGAAGGAAGCGGAGTCACCTAGTGCAG” to “GGCCGCTCGTTCGGGCGGGTGACAAGGCGAAGGAGGGAAGCGGAGTCACCTAGTGCAG”, the binding signal falls from 25900 fluorescence intensity (a.u.) to 5020 fluorescence intensity (a.u.).

First: CAACACCCAACCCCAATTGGTCGCGGTGGGTCGGACGGACCGGAGTCACCTAGTGCAG
Second: AGGAGGATATAGCACCAACCAAACTGTGCACCTAACATTGCGGAGTCACCTAGTGCAG
The binding signal of the first is higher: 34900 fluorescence intensity (a.u.) for the first, 24100 fluorescence intensity (a.u.) for the second.

Compared with “GTCTTCGTGTTCGTGACCTGTCCATGAGCAGAATTAGCTGCGGAGTCACCTAGTGCAG”, “ATTCCAGCACTAATGTGTCATGGTTTACCTCAGCCACGCGCGGAGTCACCTAGTGCAG” is higher in binding signal: 5150 fluorescence intensity (a.u.) for the first, 5350 fluorescence intensity (a.u.) for the second.

Going from “ACACAGCACATGTCACCGCCTCGTCAGACCGGGCCCACACCGGAGTCACCTAGTGCAG” to “ATCGCTCGCCACGTGTCCACGCTCCACCCCAACCCCTCATCGGAGTCACCTAGTGCAG”, the binding signal rises from 15600 fluorescence intensity (a.u.) to 24400 fluorescence intensity (a.u.).

Going from “CTTCAGCGGGCCAAGATCTGGGAGCCGGCGTGGCCTAAGGCGGAGTCACCTAGTGCAG” to “GCAGATCTTGACTATCTCCACGGGATATATACACGGCGGCCGGAGTCACCTAGTGCAG”, the binding signal rises from 3380 fluorescence intensity (a.u.) to 22300 fluorescence intensity (a.u.).

Going from “GACAATGACACGTTCTACAAGATATACATTTGAGCTTATTCGGAGTCACCTAGTGCAG” to “TGAAACCTTAAAGGTGTTCTTACCGAGTGTCGGTTAGAAACGGAGTCACCTAGTGCAG”, the binding signal falls from 3330 fluorescence intensity (a.u.) to 3210 fluorescence intensity (a.u.).

Going from “TTACTACCTATTCTAAAATATTAGAATATAAAATTGGATGCGGAGTCACCTAGTGCAG” to “CGGCGGCCTTGTCGCCGGTGACGGGAGGGAGAGGGGTCGTCGGAGTCACCTAGTGCAG”, the binding signal falls from 32300 fluorescence intensity (a.u.) to 4630 fluorescence intensity (a.u.).

Compared with “AAAAGTCCACGGTGGACCGGTTCCACCACCACCACCCTCCCGGAGTCACCTAGTGCAG”, “TCCAGCTATCGTAGTAGAGATGACGACATGCCAAAGTGGTCGGAGTCACCTAGTGCAG” is lower in binding signal: 3970 fluorescence intensity (a.u.) for the first, 3150 fluorescence intensity (a.u.) for the second.

Going from “CTTGCGTTGGTACAACAATCCGTCGAGAGCTCCGTGGCGTCGGAGTCACCTAGTGCAG” to “TGTTCTCCTACAGTCTCATCACCGATTGCTACTCCTATTACGGAGTCACCTAGTGCAG”, the binding signal falls from 3340 fluorescence intensity (a.u.) to 3250 fluorescence intensity (a.u.).

Going from “CGAAGAGGAAGGGAAGGGCAGCGCCACGTCGACACCACGTCGGAGTCACCTAGTGCAG” to “ACATGTGGGCTCACAGCCCAGTCATAGCCCCATAGGTTGTCGGAGTCACCTAGTGCAG”, the binding signal falls from 24100 fluorescence intensity (a.u.) to 6170 fluorescence intensity (a.u.).

Going from “CCGGGGCCCCTCGACGCGGCACGTGGCTCGCACATTCGCACGGAGTCACCTAGTGCAG” to “ACGCAGACATTCACGTTTCCTCCATGTGTCATCAATGATGCGGAGTCACCTAGTGCAG”, the binding signal falls from 6690 fluorescence intensity (a.u.) to 5410 fluorescence intensity (a.u.).
